Laboratory results reported in paper PMC9506415.
These are yes or no findings as the source states them, for the method shown. Binding seen in cells or lysates may run through a third protein. Here binding means that the protein was enriched with, or labelled near, the bait; the list need not be complete.

B1: gelatin peptide 4, α1.889–906, … (peptide)
peptide: GETGPAGPAGPIGPVGAR
B2: gelatin peptide α1.91–99, … (peptide)
peptide: GFSGLDGAK
B3: gelatin peptide 13, α2.931–941, … (peptide)
peptide: GPAGPSGPAGK

Biological target: human fibronectin (human)
Test: affinity purification with mass spectrometry; human FN coupled to Sepharose 4FF; tryptic digest of bovine gelatin loaded in 20 mM PBS pH 7.4, washed, eluted with 3 M urea (sample 1), or undigested gelatin bound, eluted and then digested with trypsin (sample 2); peptides identified by HPLC-MS/MS against bovine type I collagen; only the target purified

binding, binds:
B1
B2
B3
